# Record: PubChem BioAssay AID1259405 (NCATS, 2018)
# Screen: 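Silenced genes that increase secreted GFP made by CHO cells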 (primary screen)
# System: Chinese hamster CHO-K1 ovary cells with stable secreted eGFP expression
# Reagents: single siRNA against mouse genes, 0.8 pmol siRNA per well (2 µl of 400 nM stock)
# Duration: 3 days
# Measurement: 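Per-well intracellular GFP measured by laser scanning cytometry, plus viability from ATP luminescence, each relative to plate median of non-targeting control wells, in %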
# Scale: GFP, % of control: higher = more GFP per well, higher productivity; viability (ATP), % of control: higher = more viable cells (more ATP)
# Call rule: 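Called active when intracellular GFP, relative to negative control, is at or above 120%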
# Shown is one part, drawn at random, of about 50,000 deposited reagents. In the full data, about 4,000 (8%) are marked active. 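Mouse siRNA library applied to hamster cells; one well for each siRNA.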 Unmarked entries are inactive. The numbers tell different reagents against one gene apart.
"GFP, % of control","viability (ATP), % of control",target,siRNA no.
50.2,53.3,Gtf2ird2,1
60.9,65.3,Gtf2ird2,2
89.6,78.3,Gtf2ird2,3
78.2,81.6,Rbbp5,1
87.3,85.8,Rbbp5,2
27.1,28.9,Arc,1
93.5,112,Arc,2
109,70,Arc,3
65.9,46.6,Or1e32,1
76.7,76.1,Or1e32,2
62.3,124,Or1e32,3
70,79.3,Gng12,1
87.4,68.2,Gng12,2
58.3,50.3,Gng12,3
104,70,Prodh,1
81.9,54.2,Prodh,2
91.2,77.8,Prodh,3

Reformatted: 3 of the entries above
| GFP, % of control | viability (ATP), % of control | target | siRNA no. |
| --- | --- | --- | --- |
| 27.1 | 28.9 | Arc | 1 |
| 93.5 | 112 | Arc | 2 |
| 109 | 70 | Arc | 3 |

More reagents follow.
"GFP, % of control","viability (ATP), % of control",target,siRNA no.
79.6,99.3,Fut9,1
114,153,Fut9,2
59.7,92.3,Fut9,3
79.8,74.6,Hnrnph1,1
88.7,88.3,Hnrnph1,2
81.1,98.6,Hnrnph1,3
96.2,89.3,Mrs2,1
48.6,69.9,Mrs2,2
69.3,65.8,Mrs2,3
133 (active),59.4,Cyp2c65,1
52.7,70.9,Cyp2c65,2
65.8,83.4,Cyp2c65,3
75.6,57.3,Krt18,1
76.8,72.9,Krt18,2
91,79.8,Krt18,3
106,73.6,Pvr,1
90,68.6,Pvr,2
109,95.7,Pvr,3
